Our source for the binding values is PMC12866682 (2025).

Sequences of proteins named here, by UniProt entry; tags and fusion partners are left off. Residues count along the entry.
UniProt Q9NZC2, residues 19-174: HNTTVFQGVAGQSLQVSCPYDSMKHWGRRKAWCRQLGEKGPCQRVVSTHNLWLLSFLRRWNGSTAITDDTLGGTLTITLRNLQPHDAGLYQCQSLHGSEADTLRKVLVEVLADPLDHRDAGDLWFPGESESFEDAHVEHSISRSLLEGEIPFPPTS

For the assay, the target named is hTREM2-Fc (human) (UniProt Q9NZC2). Description: affinity purification with mass spectrometry; NETs proteins of SLE patients (DNase I treated, acetone precipitated, dissolved in cell lysis buffer with PMSF) incubated with hTREM2-Fc or control IgG1 and Protein A/G agarose beads for a night at 4 °C; beads washed five times; Orbitrap Fusion Lumos; only the target purified.

Results are given in words; binding and its absence hold for the method and conditions named. Binding seen in cells or lysates may run through a third protein. These calls come from enrichment with a bait or labelling near it, and not all partners need be listed.

B1: azurocidin (AZU1) of neutrophil extracellular traps (protein, UniProt P20160 27-251)
chain: IVGGRKARPRQFPFLASIQNQGRHFCGGALIHARFVMTAASCFQSQNPGVSTVVLGAYDLRRRERQSRQTFSISSMSENGYDPQQNLNDLMLLQLDREANLTSSVTILPLPLQNATVEAGTRCQVAGWGSQRSGGRLSRFPRFVNVTVTPEDQCRPNNVCTGVLTRRGGICNGDGGTPLVCEGLAHGVASFSLGPCGRGPDFFTRVALFRDWIDGVLNNPGPGPA
In the case of B1, the binding result is “binds”.

B2: cathepsin G (CTSG) of neutrophil extracellular traps (protein, UniProt P08311 21-244)
chain: IIGGRESRPHSRPYMAYLQIQSPAGQSRCGGFLVREDFVLTAAHCWGSNINVTLGAHNIQRRENTQQHITARRAIRHPQYNQRTIQNDIMLLQLSRRVRRNRNVNPVALPRAQEGLRPGTLCTVAGWGRVSMRRGTDTLREVQLRVQRDRQCLRIFGSYDPRRQICVGDRRERKAAFKGDSGGPLLCNNVAHGIVSYGKSSGVPPEVFTRVSSFLPWIRTTMRS
With B2, the binding result is listed as “binds”.
